# Test results as given in the supplement of paper PMC10849652.
# Amino acid sequences for entries named in this document (tags omitted). A change or cut given only in a name is not applied to a line headed by its entry.
# UniProt Q13033: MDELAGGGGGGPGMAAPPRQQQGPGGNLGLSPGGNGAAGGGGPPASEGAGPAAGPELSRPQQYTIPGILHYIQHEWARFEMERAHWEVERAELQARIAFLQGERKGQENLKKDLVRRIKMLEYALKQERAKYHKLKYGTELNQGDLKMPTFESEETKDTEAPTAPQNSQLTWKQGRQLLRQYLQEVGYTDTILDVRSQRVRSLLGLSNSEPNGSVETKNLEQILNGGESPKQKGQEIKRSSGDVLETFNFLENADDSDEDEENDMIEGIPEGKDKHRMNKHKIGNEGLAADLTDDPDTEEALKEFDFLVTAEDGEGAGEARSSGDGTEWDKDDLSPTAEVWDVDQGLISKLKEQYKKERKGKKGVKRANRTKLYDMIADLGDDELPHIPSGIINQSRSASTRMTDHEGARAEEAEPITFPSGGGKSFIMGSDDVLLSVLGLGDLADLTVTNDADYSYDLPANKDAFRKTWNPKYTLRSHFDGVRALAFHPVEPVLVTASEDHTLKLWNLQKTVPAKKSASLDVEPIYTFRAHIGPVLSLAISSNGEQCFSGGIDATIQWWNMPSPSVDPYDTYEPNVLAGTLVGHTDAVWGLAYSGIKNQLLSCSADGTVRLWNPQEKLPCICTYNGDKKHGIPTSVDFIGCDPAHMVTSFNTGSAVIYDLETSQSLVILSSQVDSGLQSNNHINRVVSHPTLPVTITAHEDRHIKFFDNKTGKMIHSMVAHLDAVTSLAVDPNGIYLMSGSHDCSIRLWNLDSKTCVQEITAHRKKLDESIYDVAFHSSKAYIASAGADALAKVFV
# UniProt O94768: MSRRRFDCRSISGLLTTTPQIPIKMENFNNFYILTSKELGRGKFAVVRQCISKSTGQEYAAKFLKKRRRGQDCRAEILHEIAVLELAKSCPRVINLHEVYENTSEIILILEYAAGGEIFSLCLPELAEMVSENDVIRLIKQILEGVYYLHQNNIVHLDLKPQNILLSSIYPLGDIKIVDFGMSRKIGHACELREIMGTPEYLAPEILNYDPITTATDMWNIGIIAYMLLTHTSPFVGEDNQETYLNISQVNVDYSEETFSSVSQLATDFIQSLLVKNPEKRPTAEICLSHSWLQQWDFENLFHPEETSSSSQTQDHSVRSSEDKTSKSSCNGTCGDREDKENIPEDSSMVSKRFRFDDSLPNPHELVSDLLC
# UniProt Q9Y2H1: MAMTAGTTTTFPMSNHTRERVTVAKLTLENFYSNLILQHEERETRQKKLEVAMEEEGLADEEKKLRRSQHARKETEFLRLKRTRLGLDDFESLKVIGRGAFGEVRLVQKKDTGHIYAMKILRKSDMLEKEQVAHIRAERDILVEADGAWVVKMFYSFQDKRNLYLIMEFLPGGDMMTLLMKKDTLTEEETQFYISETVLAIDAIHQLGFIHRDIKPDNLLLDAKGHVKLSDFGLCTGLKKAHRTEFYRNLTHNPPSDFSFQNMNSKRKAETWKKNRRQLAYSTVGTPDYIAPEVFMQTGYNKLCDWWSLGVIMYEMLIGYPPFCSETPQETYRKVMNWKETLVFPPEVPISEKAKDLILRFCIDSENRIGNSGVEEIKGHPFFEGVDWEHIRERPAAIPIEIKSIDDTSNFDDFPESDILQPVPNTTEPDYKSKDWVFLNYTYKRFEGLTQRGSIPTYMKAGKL
# UniProt P57105: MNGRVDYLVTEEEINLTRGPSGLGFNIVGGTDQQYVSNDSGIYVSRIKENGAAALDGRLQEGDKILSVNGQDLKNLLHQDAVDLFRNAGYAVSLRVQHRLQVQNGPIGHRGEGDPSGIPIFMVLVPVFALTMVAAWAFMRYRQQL
# UniProt O00268, whole entry, looked up: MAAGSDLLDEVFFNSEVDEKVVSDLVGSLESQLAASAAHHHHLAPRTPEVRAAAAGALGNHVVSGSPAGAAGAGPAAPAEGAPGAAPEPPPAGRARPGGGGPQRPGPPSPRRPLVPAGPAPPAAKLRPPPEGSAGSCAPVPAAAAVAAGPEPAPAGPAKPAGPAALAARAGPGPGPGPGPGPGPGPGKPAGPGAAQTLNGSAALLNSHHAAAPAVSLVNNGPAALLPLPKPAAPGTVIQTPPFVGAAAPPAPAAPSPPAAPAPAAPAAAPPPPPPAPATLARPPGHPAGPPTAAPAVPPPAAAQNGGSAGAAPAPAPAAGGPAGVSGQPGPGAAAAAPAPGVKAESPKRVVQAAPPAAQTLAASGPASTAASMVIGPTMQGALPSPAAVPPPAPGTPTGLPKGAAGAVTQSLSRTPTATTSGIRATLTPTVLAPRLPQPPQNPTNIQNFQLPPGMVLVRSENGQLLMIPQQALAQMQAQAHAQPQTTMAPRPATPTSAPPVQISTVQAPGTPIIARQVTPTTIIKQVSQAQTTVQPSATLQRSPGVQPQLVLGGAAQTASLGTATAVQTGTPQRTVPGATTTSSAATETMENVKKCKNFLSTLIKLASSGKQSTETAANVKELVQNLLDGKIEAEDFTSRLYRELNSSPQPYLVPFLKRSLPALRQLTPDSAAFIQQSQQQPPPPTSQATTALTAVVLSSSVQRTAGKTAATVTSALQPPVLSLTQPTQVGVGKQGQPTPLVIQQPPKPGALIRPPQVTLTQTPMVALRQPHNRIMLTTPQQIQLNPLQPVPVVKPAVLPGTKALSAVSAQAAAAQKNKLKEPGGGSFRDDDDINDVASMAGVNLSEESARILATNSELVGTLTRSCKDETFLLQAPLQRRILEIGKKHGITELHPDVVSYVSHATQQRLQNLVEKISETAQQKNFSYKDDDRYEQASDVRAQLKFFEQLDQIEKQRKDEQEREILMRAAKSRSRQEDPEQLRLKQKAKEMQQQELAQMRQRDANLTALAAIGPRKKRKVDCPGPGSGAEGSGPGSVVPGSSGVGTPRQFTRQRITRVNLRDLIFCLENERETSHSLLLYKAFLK
# UniProt Q15544, whole entry, looked up: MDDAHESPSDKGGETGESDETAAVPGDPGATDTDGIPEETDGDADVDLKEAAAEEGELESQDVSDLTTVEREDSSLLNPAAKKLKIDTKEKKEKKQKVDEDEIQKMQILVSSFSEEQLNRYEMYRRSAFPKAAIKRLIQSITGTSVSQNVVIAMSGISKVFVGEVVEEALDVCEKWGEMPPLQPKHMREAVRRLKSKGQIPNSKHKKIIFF
# UniProt Q6PIF2: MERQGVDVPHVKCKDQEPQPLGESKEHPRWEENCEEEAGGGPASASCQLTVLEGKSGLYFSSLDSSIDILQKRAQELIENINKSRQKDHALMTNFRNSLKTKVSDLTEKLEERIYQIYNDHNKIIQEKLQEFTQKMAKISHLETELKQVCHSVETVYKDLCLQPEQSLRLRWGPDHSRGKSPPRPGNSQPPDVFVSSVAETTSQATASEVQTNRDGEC
# UniProt O75716, whole entry, looked up: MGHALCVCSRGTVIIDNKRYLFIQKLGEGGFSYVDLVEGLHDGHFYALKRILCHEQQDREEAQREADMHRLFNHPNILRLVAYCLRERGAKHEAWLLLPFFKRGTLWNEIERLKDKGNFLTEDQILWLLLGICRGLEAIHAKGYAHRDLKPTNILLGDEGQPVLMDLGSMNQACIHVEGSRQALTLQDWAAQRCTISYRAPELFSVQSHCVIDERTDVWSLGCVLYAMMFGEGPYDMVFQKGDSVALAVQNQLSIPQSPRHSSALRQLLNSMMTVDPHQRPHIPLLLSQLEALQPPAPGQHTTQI
# UniProt Q9NZ72: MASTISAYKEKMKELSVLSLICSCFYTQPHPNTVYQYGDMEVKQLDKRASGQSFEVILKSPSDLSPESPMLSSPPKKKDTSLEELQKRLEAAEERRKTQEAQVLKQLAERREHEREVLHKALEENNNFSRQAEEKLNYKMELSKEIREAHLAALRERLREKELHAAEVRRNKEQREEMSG
# UniProt Q13188: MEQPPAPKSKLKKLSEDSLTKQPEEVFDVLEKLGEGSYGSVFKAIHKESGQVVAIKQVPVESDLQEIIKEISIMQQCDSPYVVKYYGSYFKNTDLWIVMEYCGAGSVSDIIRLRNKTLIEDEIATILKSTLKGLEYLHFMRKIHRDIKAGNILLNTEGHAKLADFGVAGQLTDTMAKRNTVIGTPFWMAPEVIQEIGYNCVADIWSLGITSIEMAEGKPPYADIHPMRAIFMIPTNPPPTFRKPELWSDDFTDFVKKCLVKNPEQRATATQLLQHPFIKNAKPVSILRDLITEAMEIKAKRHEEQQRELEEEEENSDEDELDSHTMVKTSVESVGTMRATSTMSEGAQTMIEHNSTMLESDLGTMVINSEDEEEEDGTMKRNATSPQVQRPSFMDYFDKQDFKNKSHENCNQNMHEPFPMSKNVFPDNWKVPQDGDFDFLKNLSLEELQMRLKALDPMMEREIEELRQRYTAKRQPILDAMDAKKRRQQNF
# UniProt Q5VWG9, whole entry, looked up: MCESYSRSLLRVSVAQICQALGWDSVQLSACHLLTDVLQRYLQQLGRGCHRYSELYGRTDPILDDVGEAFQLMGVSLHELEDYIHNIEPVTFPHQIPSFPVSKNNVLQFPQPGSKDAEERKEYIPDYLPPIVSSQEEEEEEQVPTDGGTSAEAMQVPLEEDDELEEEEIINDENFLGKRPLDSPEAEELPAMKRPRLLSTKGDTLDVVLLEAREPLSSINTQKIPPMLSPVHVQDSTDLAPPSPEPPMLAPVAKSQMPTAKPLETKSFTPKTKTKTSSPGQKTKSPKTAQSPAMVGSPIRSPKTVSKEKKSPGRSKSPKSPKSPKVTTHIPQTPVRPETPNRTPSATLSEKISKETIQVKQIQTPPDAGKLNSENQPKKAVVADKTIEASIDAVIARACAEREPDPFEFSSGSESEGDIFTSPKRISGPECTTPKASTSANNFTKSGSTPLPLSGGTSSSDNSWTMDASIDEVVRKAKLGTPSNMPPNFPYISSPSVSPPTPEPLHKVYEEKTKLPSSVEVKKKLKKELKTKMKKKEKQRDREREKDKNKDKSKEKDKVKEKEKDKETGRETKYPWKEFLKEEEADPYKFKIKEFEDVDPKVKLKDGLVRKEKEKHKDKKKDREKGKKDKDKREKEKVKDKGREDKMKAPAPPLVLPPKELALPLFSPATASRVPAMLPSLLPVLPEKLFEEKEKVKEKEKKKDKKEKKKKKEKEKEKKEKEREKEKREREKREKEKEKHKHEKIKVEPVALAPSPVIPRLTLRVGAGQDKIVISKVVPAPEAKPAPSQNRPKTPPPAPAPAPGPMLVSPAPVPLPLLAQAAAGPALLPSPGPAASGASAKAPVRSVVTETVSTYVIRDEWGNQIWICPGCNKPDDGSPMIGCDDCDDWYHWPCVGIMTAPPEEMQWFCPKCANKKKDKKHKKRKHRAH
# UniProt Q9Y2Z0: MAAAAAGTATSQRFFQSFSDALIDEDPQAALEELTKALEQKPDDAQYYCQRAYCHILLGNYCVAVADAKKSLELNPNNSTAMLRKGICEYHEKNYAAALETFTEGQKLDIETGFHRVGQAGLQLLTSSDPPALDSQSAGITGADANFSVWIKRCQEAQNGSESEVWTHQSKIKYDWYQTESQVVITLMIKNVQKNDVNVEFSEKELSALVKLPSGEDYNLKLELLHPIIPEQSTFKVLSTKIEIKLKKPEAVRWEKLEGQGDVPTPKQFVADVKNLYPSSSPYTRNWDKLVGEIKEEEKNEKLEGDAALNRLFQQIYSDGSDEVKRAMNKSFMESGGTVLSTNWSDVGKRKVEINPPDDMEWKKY
# UniProt P08842: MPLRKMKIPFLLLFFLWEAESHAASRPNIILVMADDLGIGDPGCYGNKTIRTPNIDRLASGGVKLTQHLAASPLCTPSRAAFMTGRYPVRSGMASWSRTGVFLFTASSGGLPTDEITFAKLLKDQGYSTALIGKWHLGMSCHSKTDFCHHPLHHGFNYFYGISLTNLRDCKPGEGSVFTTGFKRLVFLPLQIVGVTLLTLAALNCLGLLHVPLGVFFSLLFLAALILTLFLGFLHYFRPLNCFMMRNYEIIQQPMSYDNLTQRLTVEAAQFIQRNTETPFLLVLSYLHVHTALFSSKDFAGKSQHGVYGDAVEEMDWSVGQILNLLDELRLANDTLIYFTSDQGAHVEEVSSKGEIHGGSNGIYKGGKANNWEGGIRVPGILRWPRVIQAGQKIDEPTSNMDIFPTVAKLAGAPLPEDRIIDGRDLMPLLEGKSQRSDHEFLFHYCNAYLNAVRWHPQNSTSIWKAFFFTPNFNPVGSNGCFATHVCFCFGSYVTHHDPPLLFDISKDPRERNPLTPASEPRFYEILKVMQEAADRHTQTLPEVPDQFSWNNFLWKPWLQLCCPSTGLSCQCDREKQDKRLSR
# This is one part of the list.
# Columns and labels:
# Experiment in all cases: log2 fold change, soluble protein after heating vs DMSO (PISA); higher = thermal stabilisation; K562 lysate, 10 uM; active = over 0.2 and 3.5 SD of the protein, either way, in both replicates (recomputed)
# alisertib = compound: COc1cc(Nc2ncc3c(n2)-c2ccc(Cl)cc2C(c2c(F)cccc2OC)=NC3)ccc1C(=O)O [alisertib]
# Outline: (§1)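 A 30 min treatment with 10 μM compound was applied to crude K562 extract at 1 mg/mL protein in PBS pH 7.4 with 1 mM MgCl2. Heating for 3 min spanned 48°C-58°C, after which aliquots were pooled, adjusted to 0.5% NP-40 at 4°C and spun at 21,000xg for 90 min. TMTpro 16plex LC-MS/MS of the supernatant, with channel sums equalised, gave values recorded as log-two fold change in thermal stability against solvent controls, from duplicates.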
# gefitinib = compound: COc1cc2ncnc(Nc3ccc(F)c(Cl)c3)c2cc1OCCCN1CCOCC1 [gefitinib]
# Outline: as §1
# defactinib = compound: CNC(=O)c1ccc(Nc2ncc(C(F)(F)F)c(NCc3nccnc3N(C)S(C)(=O)=O)n2)cc1 [defactinib]
# Outline: as §1
# alvocidib = compound: CN1CC[C@H](c2c(O)cc(O)c3c(=O)cc(-c4ccccc4Cl)oc23)[C@H](O)C1 [alvocidib]
# Outline: as §1
# [1] = compound: CNc1nc(-c2ccc3c(N)n[nH]c3c2)cc(N2C[C@@H](C(=O)NC3CCCCC3)CC[C@H]2C)n1
# Outline: as §1
# pictilisib = compound: CS(=O)(=O)N1CCN(Cc2cc3nc(-c4cccc5[nH]ncc45)nc(N4CCOCC4)c3s2)CC1 [pictilisib]
# Outline: as §1
# [2] = compound: C[C@H](C1=CC=C(C=C1)C(=O)NC2=C3C=CNC3=NC=C2)N
# Outline: as §1
# duvelisib = compound: C[C@H](Nc1ncnc2nc[nH]c12)c1cc2cccc(Cl)c2c(=O)n1-c1ccccc1 [duvelisib]
# Outline: as §1
# gandotinib = compound: Cc1cc(Nc2cc(CN3CCOCC3)c3nc(C)c(Cc4ccc(Cl)cc4F)n3n2)n[nH]1 [gandotinib]
# Outline: as §1
# bafetinib = compound: Cc1ccc(NC(=O)c2ccc(CN3CC[C@H](N(C)C)C3)c(C(F)(F)F)c2)cc1Nc1nccc(-c2cncnc2)n1 [bafetinib]
# Outline: as §1
# [3] = compound: Cc1cccc(CC(=O)N2CCc3c2ccc(-c2cn(C)c4ncnc(N)c24)c3F)n1
# Outline: as §1
# Tubastatin A = compound: CN1CCc2c(c3ccccc3n2Cc2ccc(C(=O)NO)cc2)C1 [Tubastatin A]
# Outline: as §1
# [4] = compound: CNC(=O)C1=CC=CC=C1NC2=NC(=NC=C2Cl)NC3=C(C=C(C=C3)N4CCOCC4)OC
# Outline: as §1
# crizotinib = compound: C[C@@H](Oc1cc(-c2cnn(C3CCNCC3)c2)cnc1N)c1c(Cl)ccc(F)c1Cl [crizotinib]
# Outline: as §1
# doramapimod = compound: Cc1ccc(-n2nc(C(C)(C)C)cc2NC(=O)Nc2ccc(OCCN3CCOCC3)c3ccccc23)cc1 [doramapimod]
# Outline: as §1
# encorafenib = compound: COC(=O)N[C@@H](C)CNc1nccc(-c2cn(C(C)C)nc2-c2cc(Cl)cc(NS(C)(=O)=O)c2F)n1 [encorafenib]
# Outline: as §1
# [5] = compound: COC(=O)[C@H](CCSC)NC(=O)C1=C(C=C(C=C1)NC[C@H](CS)N)C2=CC=CC=C2
# Outline: as §1
# tozasertib = compound: Cc1cc(Nc2cc(N3CCN(C)CC3)nc(Sc3ccc(NC(=O)C4CC4)cc3)n2)n[nH]1 [tozasertib]
# Outline: as §1
# [6] = compound: COc1cc2nc(-c3cc(F)ccc3O)nc(N[C@@H]3CNC[C@H]3C(C)(C)O)c2cc1OC
# Outline: as §1
# lapatinib = compound: CS(=O)(=O)CCNCc1ccc(-c2ccc3ncnc(Nc4ccc(OCc5cccc(F)c5)c(Cl)c4)c3c2)o1 [lapatinib]
# Outline: as §1
Target,log2 fold change (alisertib),log2 fold change (gefitinib),log2 fold change (defactinib),log2 fold change (alvocidib),log2 fold change [1],log2 fold change (pictilisib),log2 fold change [2],log2 fold change (duvelisib),log2 fold change (gandotinib),log2 fold change (bafetinib),log2 fold change [3],log2 fold change (Tubastatin A),log2 fold change [4],log2 fold change (crizotinib),log2 fold change (doramapimod),log2 fold change (encorafenib),log2 fold change [5],log2 fold change (tozasertib),log2 fold change [6],log2 fold change (lapatinib)
SYNGR2 (UniProt K7EJ35),inactive: -0.163,inactive: -0.074,,,,,,,,,,,,,,,,,,
TACC3 (UniProt C9JWI7),,,inactive: -0.053,,,,,,,,,,,,,,,,,
STRN3 isoform 2 (UniProt Q13033),,,,inactive: 0.075,inactive: 0.015,inactive: 0.052,inactive: -0.051,inactive: 0.047,inactive: 0.031,inactive: -0.086,inactive: -0.08,,,,,,,,,
STK17B (UniProt O94768),inactive: 0.066,inactive: 0.094,,,inactive: 0.642,,,inactive: 0,,,,inactive: -0.466,inactive: 0.082,inactive: -0.255,inactive: -0.117,,,,,
STK38L (UniProt Q9Y2H1),inactive: 0.06,inactive: -0.049,,,inactive: 0.06,,,inactive: -0.007,,,,inactive: -0.063,active: 0.647,inactive: -0.059,inactive: -0.025,inactive: -0.036,inactive: 0.193,inactive: -0.009,,
SYNJ2BP (UniProt P57105),inactive: -0.053,inactive: 0.187,inactive: 0.17,,inactive: -0.039,inactive: -0.146,,inactive: -0.029,,inactive: 0.057,,inactive: -0.022,inactive: 0.012,inactive: 0.015,inactive: -0.036,inactive: -0.029,inactive: 0.091,inactive: 0.127,inactive: 0.032,inactive: 0.007
TAF4 (UniProt O00268),inactive: 0.029,inactive: -0.041,inactive: -0.024,,inactive: 0.023,inactive: 0.133,,inactive: 0.071,,inactive: 0.024,,inactive: -0.046,inactive: -0.051,inactive: -0.005,inactive: 0.108,inactive: -0.006,inactive: -0.016,inactive: -0.052,inactive: -0.154,inactive: -0.036
TAF11 (UniProt Q15544),inactive: -0.053,inactive: 0.064,inactive: -0.151,inactive: -0.015,inactive: 0.137,,inactive: -0.036,inactive: -0.06,inactive: 0.026,,inactive: 0,inactive: 0.014,,inactive: -0.085,inactive: 0.023,inactive: -0.155,active: 0.398,inactive: 0.102,inactive: 0.048,inactive: 0.003
SYCE2 (UniProt Q6PIF2),,,,,,,,,,,,,,inactive: 0.077,inactive: -0.026,,,,,
STK16 (UniProt O75716),,,inactive: 0.671,,inactive: -0.015,,,inactive: 0.057,,,,inactive: -0.049,inactive: 0.427,inactive: -0.054,inactive: -0.322,inactive: -0.861,inactive: -0.817,inactive: 0.162,inactive: 0.254,inactive: -0.156
SUPT5H isoform 2 (UniProt O00267),inactive: -0.06,inactive: -0.102,inactive: -0.08,,inactive: -0.065,inactive: -0.106,,inactive: 0.012,,inactive: 0.115,,,,inactive: -0.137,inactive: -0.022,,,,inactive: -0.021,inactive: 0.081
STMN3 (UniProt Q9NZ72),inactive: -0.082,inactive: -0.041,inactive: 0.023,,inactive: 0.029,inactive: -0.08,,inactive: -0.023,,inactive: 0.041,,inactive: 0.009,inactive: 0.014,inactive: 0.009,inactive: -0.003,inactive: -0.015,inactive: -0.021,inactive: -0.023,inactive: -0.012,inactive: -0.017
STK3 isoform 2 (UniProt Q13188),,inactive: 0.002,inactive: 0.205,,inactive: 0.015,inactive: 0.02,inactive: -0.029,inactive: -0.058,active: 0.468,inactive: 0.001,inactive: 0.122,inactive: -0.075,,inactive: 0.299,inactive: -0.035,inactive: -0.046,inactive: -0.068,inactive: 0.224,inactive: 0.269,inactive: -0.045
TAF3 (UniProt Q5VWG9),inactive: -0.045,inactive: 0.238,,inactive: 0.111,,,inactive: -0.05,,inactive: 0.046,,inactive: 0.088,inactive: -0.129,,,,,,,inactive: 0.002,inactive: -0.026
SUGT1 isoform 2 (UniProt Q9Y2Z0),inactive: 0.031,inactive: 0.08,inactive: -0.073,,inactive: -0.089,inactive: 0.054,,inactive: 0.07,,inactive: -0.037,,inactive: 0.083,inactive: 0.029,inactive: 0.11,inactive: -0.102,inactive: -0.161,inactive: -0.09,inactive: -0.033,inactive: 0.078,inactive: -0.087
STS (UniProt P08842),inactive: 0.302,inactive: 0.169,inactive: -0.003,inactive: 0.012,,inactive: -0.249,inactive: -0.103,,inactive: -0.022,inactive: -0.2,inactive: 0.041,inactive: -0.169,,inactive: 0.02,inactive: -0.039,,,,,

# Shown tab-delimited: entries from further up.
Target	log2 fold change (alisertib)	log2 fold change (gefitinib)	log2 fold change (defactinib)	log2 fold change (alvocidib)	log2 fold change [1]	log2 fold change (pictilisib)	log2 fold change [2]	log2 fold change (duvelisib)	log2 fold change (gandotinib)	log2 fold change (bafetinib)	log2 fold change [3]	log2 fold change (Tubastatin A)	log2 fold change [4]	log2 fold change (crizotinib)	log2 fold change (doramapimod)	log2 fold change (encorafenib)	log2 fold change [5]	log2 fold change (tozasertib)	log2 fold change [6]	log2 fold change (lapatinib)
SYNGR2 (UniProt K7EJ35)	inactive: -0.163	inactive: -0.074																		
TACC3 (UniProt C9JWI7)			inactive: -0.053																	
